Data published in article PMC6071992.
No constants are given. Whether binding was seen depends on the method and setting. For some assays here: Binding seen in cells or lysates may run through a third protein. Some entries that bind do so weakly or less than the wild type. Where a sequence is shown, tags or fusion partners need not be part of it.

Chains of the proteins cited; added tags and fusions are not shown.
UniProt Q13951: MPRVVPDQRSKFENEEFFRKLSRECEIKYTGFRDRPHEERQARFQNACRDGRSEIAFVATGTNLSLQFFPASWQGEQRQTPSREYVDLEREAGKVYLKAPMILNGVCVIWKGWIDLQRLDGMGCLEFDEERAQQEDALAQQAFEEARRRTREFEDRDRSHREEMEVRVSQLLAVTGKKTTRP
UniProt P42582: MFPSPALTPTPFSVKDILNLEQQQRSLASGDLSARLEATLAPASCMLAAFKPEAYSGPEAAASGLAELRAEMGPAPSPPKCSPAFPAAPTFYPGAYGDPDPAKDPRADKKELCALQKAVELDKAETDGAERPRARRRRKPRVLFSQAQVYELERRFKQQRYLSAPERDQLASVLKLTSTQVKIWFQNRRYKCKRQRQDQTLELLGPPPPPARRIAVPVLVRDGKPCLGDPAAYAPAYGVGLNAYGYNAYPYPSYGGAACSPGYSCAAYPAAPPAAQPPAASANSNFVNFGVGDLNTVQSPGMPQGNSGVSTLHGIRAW

T1: HA-tagged full-length TBX18 protein (mouse) (UniProt Q9EPZ6)
T1 sequence: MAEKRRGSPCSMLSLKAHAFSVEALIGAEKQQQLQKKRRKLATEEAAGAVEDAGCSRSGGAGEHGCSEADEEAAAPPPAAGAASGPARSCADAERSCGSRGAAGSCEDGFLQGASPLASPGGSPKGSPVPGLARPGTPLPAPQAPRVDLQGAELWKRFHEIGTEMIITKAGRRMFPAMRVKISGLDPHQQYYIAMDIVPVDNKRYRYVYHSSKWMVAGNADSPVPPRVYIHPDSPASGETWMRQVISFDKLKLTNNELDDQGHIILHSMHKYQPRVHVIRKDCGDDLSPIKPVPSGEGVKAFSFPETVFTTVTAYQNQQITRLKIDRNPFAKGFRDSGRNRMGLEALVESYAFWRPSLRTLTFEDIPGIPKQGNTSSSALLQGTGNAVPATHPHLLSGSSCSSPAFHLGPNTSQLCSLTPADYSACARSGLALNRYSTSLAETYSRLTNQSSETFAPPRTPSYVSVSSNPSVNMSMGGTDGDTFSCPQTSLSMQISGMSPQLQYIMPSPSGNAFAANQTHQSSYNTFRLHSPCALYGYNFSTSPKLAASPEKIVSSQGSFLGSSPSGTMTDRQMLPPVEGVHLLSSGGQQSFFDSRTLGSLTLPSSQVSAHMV

T2: GST-TBX18 C-terminal region (aa 336-613) (mouse) (UniProt Q9EPZ6)
T2 sequence: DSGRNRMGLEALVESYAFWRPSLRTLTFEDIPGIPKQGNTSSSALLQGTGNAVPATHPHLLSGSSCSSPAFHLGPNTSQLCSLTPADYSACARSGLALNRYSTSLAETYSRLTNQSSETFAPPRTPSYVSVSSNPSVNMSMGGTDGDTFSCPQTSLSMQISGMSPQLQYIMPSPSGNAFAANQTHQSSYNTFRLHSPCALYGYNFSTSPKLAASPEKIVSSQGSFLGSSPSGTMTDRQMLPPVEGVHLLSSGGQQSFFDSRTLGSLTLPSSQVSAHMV

T3: GST-TBX18 N-terminal region (aa 1-157) (mouse) (UniProt Q9EPZ6)
T3 sequence: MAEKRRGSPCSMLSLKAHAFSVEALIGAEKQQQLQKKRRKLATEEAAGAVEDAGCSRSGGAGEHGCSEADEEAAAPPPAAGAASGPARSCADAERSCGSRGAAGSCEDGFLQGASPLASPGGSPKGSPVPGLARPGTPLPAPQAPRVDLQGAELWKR

T4: GST-TBX18 T-box (aa 148-345) (mouse) (UniProt Q9EPZ6)
T4 sequence: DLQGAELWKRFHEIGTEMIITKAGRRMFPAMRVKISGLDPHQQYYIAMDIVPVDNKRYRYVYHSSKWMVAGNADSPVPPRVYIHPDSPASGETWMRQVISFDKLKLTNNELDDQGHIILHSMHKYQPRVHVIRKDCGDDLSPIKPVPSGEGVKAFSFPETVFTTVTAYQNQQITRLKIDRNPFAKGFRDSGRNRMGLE


Experiments:
[1] = biological target: T1, HA-tagged full-length TBX18 protein (mouse); assay: nuclear recruitment assay (immunofluorescence); modified assay: 293 cells co-transfected with full-length (nuclear) TBX18 and a candidate that lies outside the nucleus; recruitment of the candidate into the nucleus read by immunofluorescence against the tags
[2] = biological target: T2, GST-TBX18 C-terminal region (aa 336-613) (mouse); assay: pull-down; GST-TBX18 domain fusion proteins on glutathione beads incubated 2 h with NP-40 extracts of 293 cells transfected with MYC- or HA-tagged candidates; washed 3 times with pull-down buffer (20 mM HEPES pH 7.9, 100 mM NaCl, 10 mM KCl, 5 mM MgCl2, 0.5 mM EDTA, 5% glycerol, 0.05% Triton X-100, 1 mM DTT); Western blot against the tags; only the target purified
[3] = biological target: T3, GST-TBX18 N-terminal region (aa 1-157) (mouse); assay: as above
[4] = biological target: T4, GST-TBX18 T-box (aa 148-345) (mouse); assay: as above
[5] = biological target: T2, GST-TBX18 C-terminal region (aa 336-613) (mouse); assay: pull-down; GST-TBX18 domain fusion proteins on glutathione beads incubated 2 h with 20 to 40 ul reticulocyte lysate with in vitro translated 35S-labelled proteins; washed 3 times with pull-down buffer; SDS-PAGE and autoradiography; only the target purified
[6] = biological target: T4, GST-TBX18 T-box (aa 148-345) (mouse); assay: as above
[7] = biological target: T3, GST-TBX18 N-terminal region (aa 1-157) (mouse); assay: as above

binding [4] | binding [6] | Molecule | also measured
binds |  | MYC-tagged CBFB (from UniProt Q13951 1-182) | binding [1]: binds; binding [2]: binds; binding [3]: binds
binds |  | HA-tagged NKX2.5 (from UniProt P42582 1-318) | 
 | binds | in vitro translated 35S-labelled CBFB (from UniProt Q13951 1-182) | binding [5]: binds weakly
binds |  | HA-tagged CHD7 (from UniProt Q9P2D1 1-2997) | binding [3]: binds
 | binds | in vitro translated 35S-labelled NKX2.5 (from UniProt P42582 1-318) | 
 | binds | CHD7-3, amino acid residues 1533-2380, in vitro translated (domain or fragment, UniProt Q9P2D1 1533-2380, 35S-labelled methionine/cysteine) KWAKKAELDIDALNGRNNLVIDTPRVRKQTRLYSAVKEDELMEFSDLESDSEEKPCAKPRRPQDKSQGYARSECFRVEKNLLVYGWGRWTDILSHGRYKRQLTEQDVETICRTILVYCLNHYKGDENIKSFIWDLITPTADGQTRALVNHSGLSAPVPRGRKGKKVKAQSTQPVVQDADWLASCNPDALFQEDSYKKHLKHHCNKVLLRVRMLYYLRQEVIGDQADKILEGADSSEADVWIPEPFHAEVPADWWDKEADKSLLIGVFKHGYEKYNSMRADPALCFLERVGMPDAKAIAAEQRGTDMLADGGDGGEFDREDEDPEYKPTRTPFKDEIDEFANSPSEDKEESMEIHATGKHSESNAELGQLYWPNTSTLTTRLRRLITAYQRSYKRQQMRQEALMKTDRRRRRPREEVRALEAEREAIISEKRQKWTRREEADFYRVVSTFGVIFDPVKQQFDWNQFRAFARLDKKSDESLEKYFSCFVAMCRRVCRMPVKPDDEPPDLSSIIEPITEERASRTLYRIELLRKIREQVLHHPQLGERLKLCQPSLDLPEWWECGRHDRDLLVGAAKHGVSRTDYHILNDPELSFLDAHKNFAQNRGAGNTSSLNPLAVGFVQTPPVISSAHIQDERVLEQAEGKVEEPENPAAKEKCEGKEEEEETDGSGKESKQECEAEASSVKNELKGVEVGADTGSKSISEKGSEEDEEEKLEDDDKSEESSQPEAGAVSRGKNFDEESNASMSTARDETRDGFYMEDGDPSVAQLLHERTFAFSFWPKDRVMINRLDNICEAVLKGKWPVNRRQMFDFQGLIPGYTPTTVDSPLQKRSFAELSMVGQASISGSEDI | binding [7]: binds weakly
 | binds | in vitro translated 35S-labelled MAP9 (protein, UniProt Q49MG5 1-647, 35S-labelled methionine/cysteine) MSDEVFSTTLAYTKSPKVTKRTTFQDELIRAITARSARQRSSEYSDDFDSDEIVSLGDFSDTSADENSVNKKMNDFHISDDEEKNPSKLLFLKTNKSNGNITKDEPVCAIKNEEEMAPDGCEDIVVKSFSESQNKDEEFEKDKIKMKPKPRILSIKSTSSAENNSLDTDDHFKPSPRPRSMLKKKSHMEEKDGLEDKETALSEELELHSAPSSLPTPNGIQLEAEKKAFSENLDPEDSCLTSLASSSLKQILGDSFSPGSEGNASGKDPNEEITENHNSLKSDENKENSFSADHVTTAVEKSKESQVTADDLEEEKAKAELIMDDDRTVDPLLSKSQSILISTSATASSKKTIEDRNIKNKKSTNNRASSASARLMTSEFLKKSSSKRRTPSTTTSSHYLGTLKVLDQKPSQKQSIEPDRADNIRAAVYQEWLEKKNVYLHEMHRIKRIESENLRIQNEQKKAAKREEALASFEAWKAMKEKEAKKIAAKKRLEEKNKKKTEEENAARKGEALQAFEKWKEKKMEYLKEKNRKEREYERAKKQKEEETVAEKKKDNLTAVEKWNEKKEAFFKQKEKEKINEKRKEELKRAEKKDKDKQAINEYEKWLENKEKQERIERKQKKRHSFLESEALPPWSPPSRTVFAKVF | 
 | binds | in vitro translated 35S-labelled B9D2 (protein, UniProt Q9BPU9 1-175, 35S-labelled methionine/cysteine) MAEVHVIGQIIGASGFSESSLFCKWGIHTGAAWKLLSGVREGQTQVDTPQIGDMAYWSHPIDLHFATKGLQGWPRLHFQVWSQDSFGRCQLAGYGFCHVPSSPGTHQLACPTWRPLGSWREQLARAFVGGGPQLLHGDTIYSGADRYRLHTAAGGTVHLEIGLLLRNFDRYGVEC | binding [5]: binds
 | binds | in vitro translated 35S-labelled HAUS8 (protein, UniProt Q9BT25 1-410, 35S-labelled methionine/cysteine) MADSSGRGAGKPATGPTNSSSAKKKDKRVQGGRVIESRYLQYEKKTTQKAPAGDGSQTRGKMSEGGRKSSLLQKSKADSSGVGKGDLQSTLLEGHGTAPPDLDLSAINDKSIVKKTPQLAKTISKKPESTSFSAPRKKSPDLSEAMEMMESQTLLLTLLSVKMENNLAEFERRAEKNLLIMCKEKEKLQKKAHELKRRLLLSQRKRELADVLDAQIEMLSPFEAVATRFKEQYRTFATALDTTRHELPVRSIHLEGDGQQLLDALQHELVTTQRLLGELDVGDSEENVQVLDLLSELKDVTAKKDLELRRSFAQVLELSAEASKEAALANQEVWEETQGMAPPSRWYFNQDSACRESGGAPKNTPLSEDDNPGASSAPAQATFISPSEDFSSSSQAEVPPSLSRSGRDLS | binding [7]: binds
